The values below come from the supplement of paper PMC10849652.

Protein sequences, listed by entry. Tags and fused reporters are not part of them. Lines headed by an entry give the natural chain unless they say otherwise; changes in a name come on top.
UniProt O60637: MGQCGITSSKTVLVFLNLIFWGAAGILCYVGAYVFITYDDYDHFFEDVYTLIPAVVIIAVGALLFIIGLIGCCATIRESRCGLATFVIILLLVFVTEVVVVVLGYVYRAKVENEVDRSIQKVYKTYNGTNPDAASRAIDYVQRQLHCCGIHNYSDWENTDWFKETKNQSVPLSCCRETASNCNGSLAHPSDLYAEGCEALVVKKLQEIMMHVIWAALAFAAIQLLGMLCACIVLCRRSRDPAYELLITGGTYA
UniProt Q8TBZ6: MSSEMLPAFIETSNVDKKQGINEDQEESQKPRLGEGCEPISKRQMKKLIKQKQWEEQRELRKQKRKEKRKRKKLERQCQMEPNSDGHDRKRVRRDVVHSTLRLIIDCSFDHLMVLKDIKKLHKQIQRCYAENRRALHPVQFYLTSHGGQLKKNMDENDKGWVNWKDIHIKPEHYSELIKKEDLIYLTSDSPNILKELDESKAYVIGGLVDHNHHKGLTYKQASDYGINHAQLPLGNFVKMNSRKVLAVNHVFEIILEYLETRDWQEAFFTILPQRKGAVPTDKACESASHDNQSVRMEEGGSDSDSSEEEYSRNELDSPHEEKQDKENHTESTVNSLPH
UniProt Q32P41: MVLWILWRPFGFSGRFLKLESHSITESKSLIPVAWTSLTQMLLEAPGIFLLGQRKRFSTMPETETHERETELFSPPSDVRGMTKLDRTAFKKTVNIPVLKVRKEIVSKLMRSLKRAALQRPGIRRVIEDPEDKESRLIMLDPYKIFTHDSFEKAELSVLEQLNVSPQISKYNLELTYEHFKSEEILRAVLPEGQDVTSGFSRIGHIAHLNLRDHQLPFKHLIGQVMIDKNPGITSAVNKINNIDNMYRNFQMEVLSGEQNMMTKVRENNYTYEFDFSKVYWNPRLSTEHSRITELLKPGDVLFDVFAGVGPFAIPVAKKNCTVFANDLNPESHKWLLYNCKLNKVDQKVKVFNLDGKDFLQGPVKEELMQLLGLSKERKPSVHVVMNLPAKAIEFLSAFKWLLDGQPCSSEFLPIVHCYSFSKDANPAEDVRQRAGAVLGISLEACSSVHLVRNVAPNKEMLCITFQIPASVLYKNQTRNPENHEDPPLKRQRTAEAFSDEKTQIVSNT
UniProt Q9BQ61: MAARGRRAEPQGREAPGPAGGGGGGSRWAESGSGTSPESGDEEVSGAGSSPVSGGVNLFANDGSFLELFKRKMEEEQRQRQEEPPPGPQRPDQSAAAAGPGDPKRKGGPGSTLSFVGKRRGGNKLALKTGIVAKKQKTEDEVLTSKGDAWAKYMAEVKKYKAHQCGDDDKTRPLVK
UniProt Q13630: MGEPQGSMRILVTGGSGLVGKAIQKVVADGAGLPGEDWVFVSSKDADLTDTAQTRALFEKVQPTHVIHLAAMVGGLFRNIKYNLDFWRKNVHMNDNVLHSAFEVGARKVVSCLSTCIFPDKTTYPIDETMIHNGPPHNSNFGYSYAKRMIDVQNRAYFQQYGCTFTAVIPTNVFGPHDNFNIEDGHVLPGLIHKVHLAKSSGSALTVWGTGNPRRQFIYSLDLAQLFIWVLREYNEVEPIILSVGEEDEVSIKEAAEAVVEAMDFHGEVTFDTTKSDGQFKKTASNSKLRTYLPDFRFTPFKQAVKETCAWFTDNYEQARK
UniProt Q7Z6J9: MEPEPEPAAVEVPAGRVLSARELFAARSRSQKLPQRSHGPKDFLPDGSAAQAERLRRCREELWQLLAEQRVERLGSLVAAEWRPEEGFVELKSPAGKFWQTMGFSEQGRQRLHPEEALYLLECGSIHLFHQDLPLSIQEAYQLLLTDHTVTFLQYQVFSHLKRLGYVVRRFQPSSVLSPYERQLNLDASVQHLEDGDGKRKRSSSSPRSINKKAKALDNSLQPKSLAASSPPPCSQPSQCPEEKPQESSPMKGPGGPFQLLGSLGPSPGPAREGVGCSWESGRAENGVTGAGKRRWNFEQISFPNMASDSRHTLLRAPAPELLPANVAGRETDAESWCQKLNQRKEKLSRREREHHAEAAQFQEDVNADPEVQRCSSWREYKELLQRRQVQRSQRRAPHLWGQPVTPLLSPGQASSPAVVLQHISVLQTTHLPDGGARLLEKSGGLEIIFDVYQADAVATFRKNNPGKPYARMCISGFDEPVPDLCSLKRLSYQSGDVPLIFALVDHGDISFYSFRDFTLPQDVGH
UniProt Q9BU70: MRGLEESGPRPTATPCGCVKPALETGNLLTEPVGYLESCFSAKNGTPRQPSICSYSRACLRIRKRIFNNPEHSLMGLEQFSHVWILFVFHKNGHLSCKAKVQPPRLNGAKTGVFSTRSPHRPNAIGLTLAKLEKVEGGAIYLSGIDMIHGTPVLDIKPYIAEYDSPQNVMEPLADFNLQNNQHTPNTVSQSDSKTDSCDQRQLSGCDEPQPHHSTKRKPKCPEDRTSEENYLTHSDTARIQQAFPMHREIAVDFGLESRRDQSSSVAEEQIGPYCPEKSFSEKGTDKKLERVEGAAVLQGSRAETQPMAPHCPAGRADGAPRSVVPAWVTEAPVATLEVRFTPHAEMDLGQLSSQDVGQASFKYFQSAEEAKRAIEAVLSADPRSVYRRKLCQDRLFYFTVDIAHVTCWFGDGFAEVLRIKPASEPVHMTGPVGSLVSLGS
UniProt O43715: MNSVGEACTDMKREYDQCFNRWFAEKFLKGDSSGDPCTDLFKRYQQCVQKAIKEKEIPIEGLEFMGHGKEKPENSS
UniProt O14717: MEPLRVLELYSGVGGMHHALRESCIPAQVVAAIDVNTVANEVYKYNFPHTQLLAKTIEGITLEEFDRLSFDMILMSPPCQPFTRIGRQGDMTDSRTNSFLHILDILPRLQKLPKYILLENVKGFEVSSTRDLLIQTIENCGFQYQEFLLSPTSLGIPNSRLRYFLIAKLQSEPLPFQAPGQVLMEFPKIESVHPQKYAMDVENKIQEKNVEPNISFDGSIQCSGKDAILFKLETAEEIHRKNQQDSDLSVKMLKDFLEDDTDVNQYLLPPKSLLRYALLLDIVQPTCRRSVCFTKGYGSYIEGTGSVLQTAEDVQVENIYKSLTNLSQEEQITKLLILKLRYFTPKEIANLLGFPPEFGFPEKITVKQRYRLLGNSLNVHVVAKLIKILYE
UniProt Q12933: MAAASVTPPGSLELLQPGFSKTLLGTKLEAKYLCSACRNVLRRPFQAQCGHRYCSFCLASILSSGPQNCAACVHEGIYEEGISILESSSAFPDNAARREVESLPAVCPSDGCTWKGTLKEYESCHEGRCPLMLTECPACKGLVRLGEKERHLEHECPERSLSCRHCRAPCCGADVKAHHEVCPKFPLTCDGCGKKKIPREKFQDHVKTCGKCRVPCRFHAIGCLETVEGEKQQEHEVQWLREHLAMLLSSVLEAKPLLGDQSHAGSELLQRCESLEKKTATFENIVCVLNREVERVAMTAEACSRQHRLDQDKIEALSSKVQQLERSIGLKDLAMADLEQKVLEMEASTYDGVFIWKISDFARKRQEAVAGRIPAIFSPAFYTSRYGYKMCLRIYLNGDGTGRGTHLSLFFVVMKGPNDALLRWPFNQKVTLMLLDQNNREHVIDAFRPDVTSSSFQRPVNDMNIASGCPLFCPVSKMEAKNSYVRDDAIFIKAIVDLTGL
UniProt Q8TDR0: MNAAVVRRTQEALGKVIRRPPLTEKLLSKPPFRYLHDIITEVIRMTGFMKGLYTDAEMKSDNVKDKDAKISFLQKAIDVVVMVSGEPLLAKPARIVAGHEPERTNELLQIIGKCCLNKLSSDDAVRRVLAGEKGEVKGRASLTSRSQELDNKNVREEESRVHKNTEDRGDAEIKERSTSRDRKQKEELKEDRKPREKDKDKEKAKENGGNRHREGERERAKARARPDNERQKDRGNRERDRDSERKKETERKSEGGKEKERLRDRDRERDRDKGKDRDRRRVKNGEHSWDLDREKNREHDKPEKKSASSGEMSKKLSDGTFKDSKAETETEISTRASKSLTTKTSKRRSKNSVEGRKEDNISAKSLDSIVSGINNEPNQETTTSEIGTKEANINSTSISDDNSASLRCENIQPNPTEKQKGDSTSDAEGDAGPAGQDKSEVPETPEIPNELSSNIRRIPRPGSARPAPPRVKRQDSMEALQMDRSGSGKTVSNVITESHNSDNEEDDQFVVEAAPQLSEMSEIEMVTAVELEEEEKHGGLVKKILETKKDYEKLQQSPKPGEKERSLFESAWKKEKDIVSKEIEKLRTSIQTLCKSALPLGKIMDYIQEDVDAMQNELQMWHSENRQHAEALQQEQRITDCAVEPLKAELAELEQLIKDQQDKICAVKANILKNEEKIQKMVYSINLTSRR
UniProt Q15714: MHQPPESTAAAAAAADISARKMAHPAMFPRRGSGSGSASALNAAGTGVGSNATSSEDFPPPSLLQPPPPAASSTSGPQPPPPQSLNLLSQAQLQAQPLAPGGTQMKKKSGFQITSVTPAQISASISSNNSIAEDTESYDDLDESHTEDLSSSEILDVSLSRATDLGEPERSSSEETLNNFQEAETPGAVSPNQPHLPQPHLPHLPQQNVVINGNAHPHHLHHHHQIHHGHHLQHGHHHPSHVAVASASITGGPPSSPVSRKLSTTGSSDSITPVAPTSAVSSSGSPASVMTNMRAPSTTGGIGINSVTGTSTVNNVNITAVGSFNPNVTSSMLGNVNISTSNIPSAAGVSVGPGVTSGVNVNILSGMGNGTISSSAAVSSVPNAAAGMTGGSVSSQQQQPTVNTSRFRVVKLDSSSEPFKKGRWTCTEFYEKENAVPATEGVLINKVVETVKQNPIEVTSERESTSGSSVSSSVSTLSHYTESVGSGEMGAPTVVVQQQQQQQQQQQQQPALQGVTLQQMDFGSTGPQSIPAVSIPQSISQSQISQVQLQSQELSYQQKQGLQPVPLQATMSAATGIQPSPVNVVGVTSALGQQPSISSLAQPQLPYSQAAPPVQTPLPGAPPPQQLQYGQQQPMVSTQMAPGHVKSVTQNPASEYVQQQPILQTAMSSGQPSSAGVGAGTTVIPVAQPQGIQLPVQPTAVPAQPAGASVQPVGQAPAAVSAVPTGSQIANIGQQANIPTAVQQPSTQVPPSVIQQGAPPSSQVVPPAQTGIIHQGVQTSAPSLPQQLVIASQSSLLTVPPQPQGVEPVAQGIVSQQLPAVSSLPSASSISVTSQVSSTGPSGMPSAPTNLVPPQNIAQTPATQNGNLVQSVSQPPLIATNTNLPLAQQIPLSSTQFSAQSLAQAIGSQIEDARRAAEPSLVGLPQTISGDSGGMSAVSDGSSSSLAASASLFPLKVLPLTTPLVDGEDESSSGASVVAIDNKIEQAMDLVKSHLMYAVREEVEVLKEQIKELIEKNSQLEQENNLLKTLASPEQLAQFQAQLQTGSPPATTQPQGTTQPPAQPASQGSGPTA
UniProt Q15645: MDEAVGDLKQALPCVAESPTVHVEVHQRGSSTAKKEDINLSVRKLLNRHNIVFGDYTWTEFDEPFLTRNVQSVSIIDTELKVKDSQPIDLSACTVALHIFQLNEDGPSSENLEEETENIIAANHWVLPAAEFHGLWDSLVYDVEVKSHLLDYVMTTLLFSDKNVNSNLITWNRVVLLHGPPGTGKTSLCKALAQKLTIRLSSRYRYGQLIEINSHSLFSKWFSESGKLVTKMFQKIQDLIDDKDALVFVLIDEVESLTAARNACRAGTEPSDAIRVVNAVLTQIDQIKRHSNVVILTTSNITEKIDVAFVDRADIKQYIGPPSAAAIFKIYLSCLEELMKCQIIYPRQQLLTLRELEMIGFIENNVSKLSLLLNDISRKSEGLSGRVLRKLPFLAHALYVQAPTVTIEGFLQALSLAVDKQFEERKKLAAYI
UniProt Q96LD4: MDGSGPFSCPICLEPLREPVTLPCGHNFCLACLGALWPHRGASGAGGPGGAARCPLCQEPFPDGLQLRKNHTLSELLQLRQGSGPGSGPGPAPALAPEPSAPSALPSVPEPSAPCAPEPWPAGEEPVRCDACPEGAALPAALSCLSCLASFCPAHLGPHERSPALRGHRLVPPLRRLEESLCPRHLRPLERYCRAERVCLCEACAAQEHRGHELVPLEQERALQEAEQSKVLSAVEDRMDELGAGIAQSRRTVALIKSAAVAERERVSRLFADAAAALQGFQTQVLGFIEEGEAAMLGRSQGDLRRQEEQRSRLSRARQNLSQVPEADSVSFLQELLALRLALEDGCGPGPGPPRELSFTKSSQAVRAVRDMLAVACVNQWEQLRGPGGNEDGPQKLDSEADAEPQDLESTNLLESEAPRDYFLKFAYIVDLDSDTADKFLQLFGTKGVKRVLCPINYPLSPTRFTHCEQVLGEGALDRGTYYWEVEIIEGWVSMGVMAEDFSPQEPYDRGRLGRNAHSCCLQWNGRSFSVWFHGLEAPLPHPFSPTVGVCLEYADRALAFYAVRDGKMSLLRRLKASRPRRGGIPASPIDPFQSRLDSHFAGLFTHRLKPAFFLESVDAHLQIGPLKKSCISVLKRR

Assay in all cases: log2 fold change, soluble protein after heating vs DMSO (PISA); higher = thermal stabilisation; K562 lysate, 10 uM; active = over 0.2 and 3.5 SD of the protein, either way, in both replicates (recomputed)
Compound in assay [1]: CCCS(=O)(=O)Nc1ccc(F)c(C(=O)c2c[nH]c3ncc(-c4ccc(Cl)cc4)cc23)c1F [vemurafenib]
The gist of the method: (§1)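 Values give the log-two fold change in thermal stability against solvent controls, from duplicates. Crude K562 extract at 1 mg/mL protein, made by dounce homogenisation in PBS pH 7.4 with 1 mM MgCl2, was treated with 10 μM compound for 30 min. After 3 min heating across 48°C-58°C, aliquots were pooled, adjusted to 0.5% NP-40 at 4°C and centrifuged at 21,000xg for 90 min. The supernatant was measured by TMTpro 16plex LC-MS/MS with channel sums equalised.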

Compound in assay [2]: CCCS(=O)(=O)Nc1ccc(F)c(C(=O)c2c[nH]c3ncc(Cl)cc23)c1F
The gist of the method:
as §1

Compound in assay [3]: CC[C@@H]1C(=O)N(C)c2cnc(Nc3ccc(C(=O)NC4CCN(C)CC4)cc3OC)nc2N1C1CCCC1
Summed up: as §1

Compound in assay [4]: CC[C@@H]1C(=O)N(C)c2cnc(Nc3ccc(C(=O)N[C@H]4CC[C@H](N5CCN(CC6CC6)CC5)CC4)cc3OC)nc2N1C(C)C [volasertib]
Summed up: as §1

Compound in assay [5]: CCn1c(C(=O)N(C2CC2)C2CC2)cc2c3c(ncn3C)c(Nc3cc(C)n(C)n3)nc21
Summed up:
as §1

Compound in assay [6]: CCn1cc(-c2ccnc3[nH]c(-c4cccc(CN(C)C)c4)cc23)c(-c2ccc(NC(=O)N(C)C)cc2)n1
The gist of the method: as §1

Compound in assay [7]: CN1CCC(CNc2ccc3ncc(-c4cccc(OC(F)(F)F)c4)n3n2)CC1
The gist of the method: as §1

Compound in assay [8]: CN1CCN(CCOc2cc(OC3CCOCC3)c3c(Nc4c(Cl)ccc5c4OCO5)ncnc3c2)CC1 [saracatinib]
Summed up:
as §1

Compound in assay [9]: CCN(CCCOc1ccc2c(Nc3cc(CC(=O)Nc4cccc(F)c4)[nH]n3)ncnc2c1)CCOP(=O)(O)O [barasertib]
The gist of the method:
as §1

Compound in assay [10]: CN1CCN(c2nc(C3=C(c4c[nH]c5ccccc45)C(=O)NC3=O)c3ccccc3n2)CC1 [sotrastaurin]
The gist of the method:
as §1

The other results are listed elsewhere or left out.

For TSPAN3 (UniProt O60637), the log2 fold change in [1] is inactive: -0.075; in assay [2] it was inactive: -0.052; in [3], inactive: 0.01; in assay [4] it was inactive: 0.073; in [5], inactive: -0.222; in assay [6], active: 0.663. For the same target, the figures for the log2 fold change in assay [7] and in [8] were inactive: -0.3 and inactive: -0.038, respectively.
As to TTC28 (UniProt Q96AY4), the log2 fold change in assay [1] was inactive: -0.148; in [9], inactive: 0.181; in assay [10], inactive: -0.031.
As to TRMT10A (UniProt Q8TBZ6), the log2 fold change in assay [1] is inactive: 0.005; in assay [2], inactive: -0.025; in [9] it was inactive: -0.08; in assay [3], inactive: 0.118; in assay [4] it was inactive: -0.014; in assay [5], inactive: -0.005. Besides, the log2 fold change is inactive: -0.027 in assay [6], inactive: 0.029 in assay [7], inactive: -0.014 in assay [8] and inactive: 0.006 in [10].
On to TRMT5 (UniProt Q32P41), for which the log2 fold change in assay [1] is inactive: -0.007; in assay [2], inactive: 0.008; in [9], inactive: -0.007; in assay [3] it was inactive: -0.035; in assay [4] it was inactive: -0.074; in assay [5] it was inactive: 0.075. Moreover, the log2 fold change in assay [6] is inactive: -0.03; in assay [7], inactive: -0.043; in assay [8], inactive: 0.026; in assay [10], inactive: 0.095.
Consider TRIR (UniProt Q9BQ61), for which the log2 fold change in [1] is inactive: -0.019; in assay [2], inactive: 0; in [9], inactive: -0.044; in [3], inactive: 0.043; in assay [4], inactive: 0.038; in [5], inactive: 0.001. In addition, the log2 fold change in assay [6] is inactive: -0.127; in [7], inactive: 0.057; in assay [8], inactive: 0.021; in assay [10], inactive: 0.075.
As for TRIM3 (UniProt O75382), the log2 fold change in assay [1] was inactive: 0.13; in [2], inactive: -0.085; in [3], inactive: -0.029; in [4] it was inactive: 0.09.
With TSTA3 (UniProt Q13630), the log2 fold change is inactive: 0.034 in assay [1]; inactive: -0.006 in assay [2]; inactive: -0.02 in assay [9]; inactive: -0.077 in assay [3]; inactive: -0.005 in assay [4]; inactive: -0.028 in assay [5]. Further, the log2 fold change in [6] is inactive: -0.02; in [7], inactive: 0.027; in assay [8], inactive: 0.025; in [10], inactive: -0.013.
In the case of TTC21B (UniProt Q7Z4L5), the log2 fold change is inactive: -0.056 in [1]; inactive: -0.043 in [9]; inactive: 0.031 in assay [3]; inactive: 0.034 in assay [6]; inactive: -0.109 in assay [7]; inactive: 0.159 in assay [8].
Regarding TSEN54 (UniProt Q7Z6J9), the log2 fold change was inactive: 0.096 in [1]; inactive: 0.028 in [2]; inactive: -0.003 in assay [9]; inactive: -0.024 in assay [3]; inactive: -0.038 in assay [4]; inactive: 0.001 in assay [5]. Moreover, the log2 fold change in assay [6] was inactive: -0.023; in assay [7], inactive: 0.023; in [8], inactive: -0.007; in assay [10], inactive: -0.037.
TRMO (UniProt Q9BU70): the log2 fold change is inactive: -0.086 in assay [1]; inactive: 0.204 in assay [9]; inactive: 0.064 in [3]; inactive: -0.184 in assay [8]; inactive: 0.033 in assay [10].
Consider TTC13 (UniProt Q8NBP0), for which the log2 fold change in [1] is inactive: 0.006; in assay [2] it was inactive: 0.141; in assay [9], inactive: 0.157; in [4], inactive: -0.181; in [5], inactive: -0.173; in assay [10], inactive: 0.019.
For the target TRIAP1 (UniProt O43715), the log2 fold change in assay [1] was inactive: -0.016; in [2] it was inactive: -0.012; in assay [3] it was inactive: 0.019; in assay [4], inactive: 0.106; in assay [5], inactive: -0.045; in [6], inactive: 0.087. In addition, the log2 fold change was inactive: -0.073 in assay [7], inactive: 0.041 in [8] and inactive: 0.062 in assay [10].
TRDMT1 (UniProt O14717): the log2 fold change was inactive: 0.175 in assay [1]; inactive: 0.093 in assay [2]; inactive: -0.164 in [3]; inactive: -0.06 in assay [4]; inactive: 0.134 in [5]; inactive: -0.073 in [8]. The log2 fold change in assay [10] was inactive: -0.038.
As to TRAF2 isoform 2 (UniProt Q12933), the log2 fold change was inactive: -0.004 in assay [1]; inactive: 0.012 in assay [2]; inactive: 0 in [9]; inactive: 0.072 in [3]; inactive: -0.006 in [4]; inactive: 0.013 in assay [5]. In addition, the log2 fold change in assay [6] was inactive: -0.034; in [7] it was inactive: -0.032; in assay [8], inactive: -0.011; in [10], inactive: -0.029.
Consider TRAF3IP1 (UniProt Q8TDR0), for which the log2 fold change in assay [1] is inactive: -0.008; in assay [2], inactive: -0.03; in assay [9], inactive: 0.007; in [3], inactive: 0.035; in [4], inactive: -0.147; in assay [5] it was inactive: -0.165. The log2 fold change in assay [8] was inactive: -0.088; in assay [10], inactive: 0.059.
TSC22D1 (UniProt Q15714): the log2 fold change in [1] is inactive: -0.009; in assay [2] it was inactive: -0.01; in [9] it was inactive: -0.099; in assay [3], inactive: 0.021; in [4] it was inactive: 0.02; in assay [5], inactive: 0.017. The log2 fold change in assay [6] was inactive: -0.097; in assay [7], inactive: 0.005; in [8], inactive: 0.01; in [10], inactive: 0.032.
With TRIP13 (UniProt Q15645), the log2 fold change was inactive: -0.036 in [1]; inactive: 0 in assay [2]; inactive: 0.033 in assay [9]; inactive: -0.083 in assay [3]; inactive: -0.089 in [4]; inactive: 0.034 in assay [5]. The log2 fold change is inactive: 0.003 in assay [6], inactive: -0.019 in assay [7], inactive: 0.008 in assay [8] and inactive: 0.05 in assay [10].
TRIM47 (UniProt Q96LD4): the log2 fold change in assay [1] is inactive: -0.071; in assay [2] it was inactive: -0.052; in assay [3] it was inactive: 0.127; in assay [4] it was inactive: -0.073; in assay [6], inactive: 0.137; in [7], inactive: -0.035. In addition, the log2 fold change in assay [8] was inactive: 0.346.
